For 14 molecules, survivor count and T/C results are on record in PubChem BioAssay AID330 (DTP/NCI, 2004).

This test relates to P388 leukemia ip, CD2F1 mice, survival T/C. The test can be described thus: NCI In Vivo Anticancer Drug Screen. Data for tumor model P388 Leukemia (intraperitoneal) in CD2F1 (CDF1) mice. The note with it: T/C endpoint: median survival time, higher T/C = longer survival.
The mark [1] stands for this setting: dose: 50.0 mg/kg/injection, schedule: Q01DX005 (ip), vehicle: saline.
The mark [2] stands for this setting: dose: 100.0 mg/kg/injection, schedule: Q01DX005 (ip), vehicle: saline.
Where [3] appears, read: dose: 200.0 mg/kg/injection, schedule: Q01DX005 (ip), vehicle: saline.
Where [4] appears, read: dose: 2.0 mg/kg/injection, schedule: Q01DX009 (ip), vehicle: water.
Setting [5] is: dose: 12.5 mg/kg/injection, schedule: Q01DX009 (ip), vehicle: water.

The list does not hold the whole screen: it is rich in T/C values a quarter to a half above the control, in often repeated tests (any T/C) and in doses without a T/C. Further doses and runs are listed elsewhere. T/C is the treated group as % of the vehicle group. Some doses have a count of surviving animals in place of a T/C: the source holds a T/C of zero for them, seemingly a mark for toxic or unscored doses. Some doses without a T/C left all or most animals alive at the check, yet need not have been tolerated: the source hardly ever lists a survival T/C far under the control, and the zero likely stands for such cases as well. Counts of survivors are from the toxicity check (mostly the fifth day) where no day follows; animals may have died later. Schedules are NCI's codes, read here as Q, the interval in days (D) or hours (H), X, the number of doses. Some molecules as drawn cover several salts, stereoisomers or complexes of the source; a dose is that of the sample tested. Some entries hold several experiments; the results are listed from low to high. For survival time, the PubChem record calls one and a half times the control and up active, and a quarter to a half above the control has no call in these data; cut-offs in other NCI protocols can differ. Some T/C values are followed by the survivors on the day toxicity was checked, most often the fifth; where none is given, no animal had died by that day.

Regarding `CC(C)C1NC(=O)C(N)C(C)OC(=O)C(C(C)C)N(C)C(=O)CN(C)C(=O)C2CCCN2C1=O` (configuration not stated) (tested in a mixture with another compound), the survivor count runs as follows: (dose: 375.0 micrograms/kg/injection, schedule: Q01DX009 (ip), vehicle: other) 6 of 6; (dose: 500.0 micrograms/kg/injection, schedule: Q01DX009 (ip), vehicle: water) 6 of 6.

Consider `Cc1ccccc1C[n+]1ccccc1Br`, for which the survivor count is 5 of 5 under setting [1], 0 of 5 under setting [2] and 0 of 5 under setting [3].

For the molecule `CCCCN(CCCC)C(=N)c1cc(OC)ccc1OC`, the survivor count runs as follows: (dose: 12.5 mg/kg/injection, schedule: Q01DX005 (ip), vehicle: saline) 2 of 5; under setting [1], 0 of 5; under setting [2], 0 of 5; under setting [3], 0 of 5.

For `CS(C)(O)NC(N)=O`, the T/C is, setting by setting: (dose: 50.0 mg/kg/injection, schedule: Q01DX005 (ip), vehicle: other) 130 % of control; (dose: 200.0 mg/kg/injection, schedule: Q01DX005 (ip), vehicle: other) 128 % of control.

Take `O=C1CC(c2ccccc2)C(c2ccccc2)C1=O` (configuration not stated): the survivor count is listed as 6 of 6 (dose: 100.0 mg/kg/injection, schedule: Q04DX003 (ip), vehicle: Klucel (hydroxypropylcellulose) (HPC)); 6 of 6 (dose: 200.0 mg/kg/injection, schedule: Q04DX003 (ip), vehicle: Klucel (hydroxypropylcellulose) (HPC)); 6 of 6 (dose: 400.0 mg/kg/injection, schedule: Q04DX003 (ip), vehicle: Klucel (hydroxypropylcellulose) (HPC)).

Consider `O=C(Cc1cccc(CC(=O)c2ccccc2)n1)c1ccccc1`, for which the survivor count is, setting by setting: (dose: 120.0 mg/kg/injection, schedule: Q01DX005 (ip), vehicle: saline with Tween-80) 6 of 6; (dose: 240.0 mg/kg/injection, schedule: Q01DX005 (ip), vehicle: saline with Tween-80) 6 of 6.

As to `CCC1=C[C@H]2CN(CCc3c([nH]c4ccccc34)[C@@](C(=O)OC)(c3cc4c(cc3OC)N(C)[C@H]3[C@@](O)(C(=O)OC)[C@H](OC(C)=O)[C@]5(CC)C=CCN6CC[C@]43[C@@H]65)C2)C1`, the T/C (dose: 0.05 mg/kg/injection, schedule: Q01DX009 (ip), vehicle: saline) was 127 % of control; the T/C (dose: 0.1 mg/kg/injection, schedule: Q01DX009 (ip), vehicle: saline) was 125 % of control [5 of 6 alive]; the T/C (dose: 0.25 mg/kg/injection, schedule: Q01DX009 (ip), vehicle: water) is 130 % of control; the T/C (dose: 0.5 mg/kg/injection, schedule: Q01DX009 (ip), vehicle: water) is recorded as 120, 141, 146, 158 % of control; the T/C (dose: 1.0 mg/kg/injection, schedule: Q01DX009 (ip), vehicle: water) was 118, 142, 187, 201 % of control; the T/C under setting [4] is recorded as 90, 114, 173 % of control. In addition, the survivor count is 6 of 6 (dose: 1.6 mg/kg/injection, schedule: Q01DX009 (ip), vehicle: saline); 6 of 6 under setting [4]; 6 of 6 (dose: 3.2 mg/kg/injection, schedule: Q01DX009 (ip), vehicle: saline); 4 of 6 (dose: 4.0 mg/kg/injection, schedule: Q01DX009 (ip), vehicle: water); 2 of 6 (dose: 6.4 mg/kg/injection, schedule: Q01DX009 (ip), vehicle: saline); 0 of 6 and 1 of 6 (dose: 8.0 mg/kg/injection, schedule: Q01DX009 (ip), vehicle: water). Moreover, the survivor count (dose: 12.8 mg/kg/injection, schedule: Q01DX009 (ip), vehicle: saline) is 0 of 6.

Take `O=C1CC(c2ccccc2)NN1` (configuration not stated): the survivor count (dose: 200.0 mg/kg/injection, schedule: Q01DX009 (ip), vehicle: saline) is on record as 4 of 6.

Consider `CCN(CC)CCC[Si]1(C)c2ccccc2CCc2ccccc21`, for which the survivor count is, setting by setting: (dose: 100.0 mg/kg/injection, schedule: Q04DX003 (ip), vehicle: saline) 0 of 6; (dose: 200.0 mg/kg/injection, schedule: Q04DX003 (ip), vehicle: saline) 0 of 6; (dose: 400.0 mg/kg/injection, schedule: Q04DX003 (ip), vehicle: saline) 0 of 6.

Consider `S=C(N/N=C/c1ccccn1)N/N=C/c1ccccn1`, for which the T/C reads like this: (dose: 6.25 mg/kg/injection, schedule: Q01DX009 (ip), vehicle: distilled water + Tween-80) 131 % of control [5 of 6 alive]; (dose: 12.5 mg/kg/injection, schedule: Q01DX009 (ip), vehicle: distilled water + Tween-80) 149 % of control; (dose: 25.0 mg/kg/injection, schedule: Q01DX009 (ip), vehicle: distilled water + Tween-80) 146 % of control; (dose: 50.0 mg/kg/injection, schedule: Q01DX009 (ip), vehicle: saline) 128 and 138 % of control. Moreover, the survivor count is 1 of 6 and 5 of 6 (dose: 50.0 mg/kg/injection, schedule: Q01DX009 (ip), vehicle: distilled water + Tween-80); 0 of 6 and 1 of 6 (dose: 100.0 mg/kg/injection, schedule: Q01DX009 (ip), vehicle: distilled water + Tween-80); 4 of 6 (dose: 100.0 mg/kg/injection, schedule: Q01DX009 (ip), vehicle: saline); 0 of 6 (dose: 200.0 mg/kg/injection, schedule: Q01DX009 (ip), vehicle: distilled water + Tween-80); 0 of 6 (dose: 400.0 mg/kg/injection, schedule: Q01DX009 (ip), vehicle: distilled water + Tween-80).

Take `CCN(CC)C(=O)CC(c1ccccc1)N(C)C` (configuration not stated): the survivor count (dose: 240.0 mg/kg/injection, schedule: Q01DX005 (ip), vehicle: saline) is listed as 1 of 6.

For `O=C1C2C3C=CC(C2C(=O)N1CN1CCSCC1)C1C2C(=O)N(CN4CCSCC4)C(=O)C2C31` (configuration not stated), the T/C (dose: 100.0 mg/kg/injection, schedule: Q01DX009 (ip), vehicle: saline with Tween-80) was 148 % of control. For the same molecule, the survivor count (dose: 400.0 mg/kg/injection, schedule: Q01DX009 (ip), vehicle: saline with Tween-80) is 6 of 6.

With `CN(C)c1ccc(/C=C/C2=[N+](C)c3ccccc3C2(C)C)cc1`, the survivor count by setting is: (dose: 0.15 mg/kg/injection, schedule: Q01DX009 (ip), vehicle: saline) 4 of 6; (dose: 0.31 mg/kg/injection, schedule: Q01DX009 (ip), vehicle: saline) 0 of 6; (dose: 0.62 mg/kg/injection, schedule: Q01DX009 (ip), vehicle: saline) 2 of 6; (dose: 1.25 mg/kg/injection, schedule: Q01DX009 (ip), vehicle: saline) 0 of 6; (dose: 2.5 mg/kg/injection, schedule: Q01DX009 (ip), vehicle: saline) 1 of 6; (dose: 5.0 mg/kg/injection, schedule: Q01DX009 (ip), vehicle: saline) 0 of 6. Also, the survivor count runs as follows: (dose: 10.0 mg/kg/injection, schedule: Q01DX009 (ip), vehicle: saline) 0 of 6; (dose: 20.0 mg/kg/injection, schedule: Q01DX009 (ip), vehicle: saline) 0 of 6.

For the molecule `C[n+]1c(-c2cccc(OCCCCCCCCCCCCCCCCOc3cccc(-c4c5cc(N)ccc5c5ccc(N)cc5[n+]4C)c3)c2)c2cc(N)ccc2c2ccc(N)cc21`, the T/C is, setting by setting: (dose: 3.12 mg/kg/injection, schedule: Q01DX009 (ip), vehicle: water) 143 % of control; (dose: 6.25 mg/kg/injection, schedule: Q01DX009 (ip), vehicle: water) 125 % of control; under setting [5], 145 % of control. For the same molecule, the survivor count under setting [5] is reported as 6 of 6.
